Like-named read-outs stand apart in the source and are kept apart here. Results are given in words; binding and its absence hold for the method and conditions named. In cells and extracts the contact can be indirect. Some results given as binding are weak or reduced against the parent protein; the word gives no strength. For some assays here: Where a sequence is shown, tags or fusion partners need not be part of it.

The chains behind the UniProt entries cited, without tags or fusion partners.
UniProt P38606: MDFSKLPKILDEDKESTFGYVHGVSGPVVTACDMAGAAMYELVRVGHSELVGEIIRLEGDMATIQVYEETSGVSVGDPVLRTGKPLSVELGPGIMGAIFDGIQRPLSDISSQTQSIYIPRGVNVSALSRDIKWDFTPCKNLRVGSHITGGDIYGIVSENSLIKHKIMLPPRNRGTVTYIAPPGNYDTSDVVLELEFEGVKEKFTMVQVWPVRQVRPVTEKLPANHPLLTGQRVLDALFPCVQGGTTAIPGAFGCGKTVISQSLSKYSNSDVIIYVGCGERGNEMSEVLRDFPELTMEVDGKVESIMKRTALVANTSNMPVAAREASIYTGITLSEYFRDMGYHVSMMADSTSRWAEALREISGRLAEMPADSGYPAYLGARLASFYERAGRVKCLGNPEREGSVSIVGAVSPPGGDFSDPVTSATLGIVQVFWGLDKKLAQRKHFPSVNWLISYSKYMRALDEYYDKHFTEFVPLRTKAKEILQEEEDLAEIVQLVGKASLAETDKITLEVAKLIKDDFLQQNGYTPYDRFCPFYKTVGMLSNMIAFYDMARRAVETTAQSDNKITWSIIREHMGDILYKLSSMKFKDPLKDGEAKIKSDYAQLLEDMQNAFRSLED
UniProt P50516: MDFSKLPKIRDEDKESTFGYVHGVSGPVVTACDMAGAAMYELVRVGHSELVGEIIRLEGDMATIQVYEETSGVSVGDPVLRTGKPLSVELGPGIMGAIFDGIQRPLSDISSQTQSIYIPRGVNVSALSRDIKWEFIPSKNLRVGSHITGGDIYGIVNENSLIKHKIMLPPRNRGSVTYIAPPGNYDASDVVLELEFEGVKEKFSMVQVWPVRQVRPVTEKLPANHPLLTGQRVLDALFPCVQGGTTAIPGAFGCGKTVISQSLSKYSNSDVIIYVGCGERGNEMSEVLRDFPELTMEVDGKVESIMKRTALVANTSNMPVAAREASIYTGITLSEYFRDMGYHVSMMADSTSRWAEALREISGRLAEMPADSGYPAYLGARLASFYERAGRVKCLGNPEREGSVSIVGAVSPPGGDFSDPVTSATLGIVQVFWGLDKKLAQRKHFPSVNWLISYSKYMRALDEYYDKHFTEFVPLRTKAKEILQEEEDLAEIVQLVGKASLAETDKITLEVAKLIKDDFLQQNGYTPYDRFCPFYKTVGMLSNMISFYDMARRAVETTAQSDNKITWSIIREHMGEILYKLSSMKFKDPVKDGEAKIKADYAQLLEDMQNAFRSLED
UniProt P11142: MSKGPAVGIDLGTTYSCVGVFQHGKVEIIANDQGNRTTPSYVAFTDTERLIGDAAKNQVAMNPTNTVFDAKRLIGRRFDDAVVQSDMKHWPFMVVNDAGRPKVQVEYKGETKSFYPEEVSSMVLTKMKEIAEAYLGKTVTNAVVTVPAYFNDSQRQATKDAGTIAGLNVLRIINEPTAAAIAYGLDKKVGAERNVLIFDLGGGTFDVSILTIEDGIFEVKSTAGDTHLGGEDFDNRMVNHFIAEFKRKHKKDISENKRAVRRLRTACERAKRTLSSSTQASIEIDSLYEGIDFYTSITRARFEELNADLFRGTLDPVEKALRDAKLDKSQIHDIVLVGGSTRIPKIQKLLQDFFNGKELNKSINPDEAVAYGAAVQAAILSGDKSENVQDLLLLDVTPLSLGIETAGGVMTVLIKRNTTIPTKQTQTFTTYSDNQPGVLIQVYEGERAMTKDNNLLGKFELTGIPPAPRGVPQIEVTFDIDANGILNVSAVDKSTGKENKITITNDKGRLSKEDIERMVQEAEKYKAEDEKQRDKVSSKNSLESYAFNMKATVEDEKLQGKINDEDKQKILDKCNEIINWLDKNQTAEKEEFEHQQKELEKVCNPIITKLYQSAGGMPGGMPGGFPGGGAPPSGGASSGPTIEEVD

For experiment [1], the target named is full-length HA-tagged ATP6V1A (FL) (human) (UniProt P38606). Kind of experiment: co-IP; HEK293T cells co-transfected; HA-tagged partner precipitated with anti-HA beads, bound FLAG-tagged partner detected with anti-FLAG; NP40 lysis buffer, 1 h at room temperature, five washes with TBST.
Experiment [2] addresses T1, FLAG-Fbxo9 (HEK293T) (mouse) (UniProt Q8BK06).
T1 sequence: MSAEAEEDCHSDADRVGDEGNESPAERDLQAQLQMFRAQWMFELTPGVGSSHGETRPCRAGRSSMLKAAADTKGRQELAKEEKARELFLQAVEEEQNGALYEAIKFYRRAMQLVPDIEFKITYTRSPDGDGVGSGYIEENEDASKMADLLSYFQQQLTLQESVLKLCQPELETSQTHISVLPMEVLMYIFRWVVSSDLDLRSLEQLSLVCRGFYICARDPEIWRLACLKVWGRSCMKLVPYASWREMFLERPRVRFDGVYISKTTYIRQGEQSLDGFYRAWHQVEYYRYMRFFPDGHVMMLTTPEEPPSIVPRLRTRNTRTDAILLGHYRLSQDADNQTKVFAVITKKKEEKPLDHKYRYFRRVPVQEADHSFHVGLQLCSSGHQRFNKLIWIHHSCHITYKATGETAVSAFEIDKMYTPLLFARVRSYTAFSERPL
Kind of experiment: co-IP; HEK293T cells transfected; FLAG-tagged partner precipitated with anti-FLAG beads, bound HA-tagged partner (or endogenous ATP6V1A, Fig. 2G) detected; NP40 lysis buffer, 1 h at room temperature, five washes with TBST.

The target of experiment [3] is endogenous ATP6V1A (human (endogenous in HEK293T and H1299)) (UniProt P38606). In words: co-IP; endogenous proteins in H1299 cells (control and FBXO9-knockout; interaction inhibited by the knockout); anti-ATP6V1A antibody, bound HSPA8 detected with anti-HSPA8.
In experiment [4] the target is HA-Atp6v1a (HEK293T) (mouse) (UniProt P50516). In words: co-IP; HEK293T cells co-transfected; HA-tagged partner precipitated with anti-HA beads, bound FLAG-tagged partner detected with anti-FLAG; NP40 lysis buffer, 1 h at room temperature, five washes with TBST.
Experiment [5] deals with full-length HA-tagged ATP6V1A (FL) (human) (UniProt P38606). The experiment is described as above. The source holds these as a separate data set.

Regarding “FLAG-HSPA8 (full-length, FL) (from UniProt P11142 1-646)”, the binding entry in experiment [1] is reported as “binds”.
On to “HA-Atp6v1a (HEK293T) (from UniProt P50516 1-617)”, for which, in experiment [2], the binding result is “binds”.
As to “endogenous HSPA8 (from UniProt P11142 1-646)”, the binding entry in experiment [3] is “binds”.

B1: FLAG-Fbxo9 (HEK293T) (protein, UniProt Q8BK06 1-437)
chain: MSAEAEEDCHSDADRVGDEGNESPAERDLQAQLQMFRAQWMFELTPGVGSSHGETRPCRAGRSSMLKAAADTKGRQELAKEEKARELFLQAVEEEQNGALYEAIKFYRRAMQLVPDIEFKITYTRSPDGDGVGSGYIEENEDASKMADLLSYFQQQLTLQESVLKLCQPELETSQTHISVLPMEVLMYIFRWVVSSDLDLRSLEQLSLVCRGFYICARDPEIWRLACLKVWGRSCMKLVPYASWREMFLERPRVRFDGVYISKTTYIRQGEQSLDGFYRAWHQVEYYRYMRFFPDGHVMMLTTPEEPPSIVPRLRTRNTRTDAILLGHYRLSQDADNQTKVFAVITKKKEEKPLDHKYRYFRRVPVQEADHSFHVGLQLCSSGHQRFNKLIWIHHSCHITYKATGETAVSAFEIDKMYTPLLFARVRSYTAFSERPL
In the case of B1, the binding result in experiment [4] is “binds”.

B2: full-length FLAG-tagged FBXO9 (FL) (protein, UniProt Q9UK97 1-447)
chain: MPDIIWVFPPQAEAEEDCHSDTVRADDDEENESPAETDLQAQLQMFRAQWMFELAPGVSSSNLENRPCRAARGSLQKTSADTKGKQEQAKEEKARELFLKAVEEEQNGALYEAIKFYRRAMQLVPDIEFKITYTRSPDGDGVGNSYIEDNDDDSKMADLLSYFQQQLTFQESVLKLCQPELESSQIHISVLPMEVLMYIFRWVVSSDLDLRSLEQLSLVCRGFYICARDPEIWRLACLKVWGRSCIKLVPYTSWREMFLERPRVRFDGVYISKTTYIRQGEQSLDGFYRAWHQVEYYRYIRFFPDGHVMMLTTPEEPQSIVPRLRTRNTRTDAILLGHYRLSQDTDNQTKVFAVITKKKEEKPLDYKYRYFRRVPVQEADQSFHVGLQLCSSGHQRFNKLIWIHHSCHITYKSTGETAVSAFEIDKMYTPLFFARVRSYTAFSERPL
In the case of B2, the binding entry in experiment [5] is on record as “binds”.
